Reference: patent EP0420021B1, “Hydrophilic laminated porous membranes and methods of preparing same” (ABBOTT LABORATORIES, priority 1989, dated 1991)

System: anti-HCG antibody
Test: Immunochromatography signal development (antibody binding to surfactant-treated nitrocellulose membrane)
[1] = Part D: surfactant 1% w/v from isopropanol solution

C[C@H](CCC(=O)NCCC[N+](C)(C)CCCS(=O)(=O)[O-])[C@H]1CC[C@H]2[C@@H]3[C@H](O)C[C@@H]4C[C@H](O)CC[C@]4(C)[C@H]3C[C@H](O)[C@]12C [CHAPS]
signal development during immunochromatography (Part A: surfactant 1% w/v from water, 50 mIU HCG urine): loss of signal development

CCCCCCCCCCCCCCCC[N+](C)(C)CC.[Br-] [cethydimethylethylammonium Br]
signal development during immunochromatography [1]: no decrease in signal development

CCCCCCCCCCCCCCCCO [cetyl alcohol]
signal development during immunochromatography (Part B: surfactant 0.1% w/v from isopropanol, 50 mIU HCG urine): no reduction in signal development

CCCCCCCCCCS(=O)(=O)O [decane sulfonic acid]
signal development during immunochromatography (Part E: 1% in water solution): no decrease in signal development

CCCCCCCCOC(=O)CC(C(=O)OCCCCCCCC)S(=O)(=O)O (stereo not drawn) [dioctyl sulfosuccinate]
signal development during immunochromatography (Part A: surfactant 1% w/v from isopropanol, 50 mIU HCG urine): loss of signal development

CCCCCCCCCCCCS(=O)(=O)O [dodecane sulfonic acid]
signal development during immunochromatography (Part E: 0.1% in water solution): no decrease in signal development

CCCCCCCCCCCC[N+](C)(C)C.[Br-] [dodecyltrimethylammonium Br, dodecyltrimethylammonium bromide]
signal development during immunochromatography [1]: no decrease in signal development

CCCCCCCS(=O)(=O)O [heptane sulfonic acid]
signal development during immunochromatography (Part E: 1% in water solution): no decrease in signal development

CCCCCCCCCCCCCCCC[N+](C)(C)C.[Br-] [hexadecyltrimethylammonium Br, hexadecyltrimethylammonium bromide]
signal development during immunochromatography [1]: no decrease in signal development

CCCCCCCCS(=O)(=O)O [octane sulfonic acid]
signal development during immunochromatography (Part E: 1% in water solution): no decrease in signal development

CCCCCS(=O)(=O)O [pentane sulfonic acid]
signal development during immunochromatography (Part E: 1% in water solution): no decrease in signal development

CCCCCCCCCCCCOS(=O)(=O)[O-].[Na+] [sodium dodecyl sulfate]
signal development during immunochromatography (Part E: 0.1% in water solution): no decrease in signal development

Some compounds share one wording; it may come from a single statement.
